PMC4526467

Sequences of proteins named here, by UniProt entry; tags and fusion partners are left off. A change or cut given only in a name is not applied to a line headed by its entry.
UniProt P18089: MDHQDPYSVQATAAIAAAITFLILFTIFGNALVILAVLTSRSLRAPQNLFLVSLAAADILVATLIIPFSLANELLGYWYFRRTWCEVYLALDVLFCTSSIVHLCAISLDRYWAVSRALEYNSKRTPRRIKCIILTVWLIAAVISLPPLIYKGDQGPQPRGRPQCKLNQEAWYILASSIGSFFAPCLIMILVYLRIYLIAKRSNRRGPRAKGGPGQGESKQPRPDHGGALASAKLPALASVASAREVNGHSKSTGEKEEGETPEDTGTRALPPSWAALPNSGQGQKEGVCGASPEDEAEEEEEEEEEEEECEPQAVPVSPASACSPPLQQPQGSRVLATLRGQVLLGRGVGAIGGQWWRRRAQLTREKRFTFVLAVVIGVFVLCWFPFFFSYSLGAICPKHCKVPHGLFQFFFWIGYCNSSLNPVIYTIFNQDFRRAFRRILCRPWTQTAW
UniProt P32121: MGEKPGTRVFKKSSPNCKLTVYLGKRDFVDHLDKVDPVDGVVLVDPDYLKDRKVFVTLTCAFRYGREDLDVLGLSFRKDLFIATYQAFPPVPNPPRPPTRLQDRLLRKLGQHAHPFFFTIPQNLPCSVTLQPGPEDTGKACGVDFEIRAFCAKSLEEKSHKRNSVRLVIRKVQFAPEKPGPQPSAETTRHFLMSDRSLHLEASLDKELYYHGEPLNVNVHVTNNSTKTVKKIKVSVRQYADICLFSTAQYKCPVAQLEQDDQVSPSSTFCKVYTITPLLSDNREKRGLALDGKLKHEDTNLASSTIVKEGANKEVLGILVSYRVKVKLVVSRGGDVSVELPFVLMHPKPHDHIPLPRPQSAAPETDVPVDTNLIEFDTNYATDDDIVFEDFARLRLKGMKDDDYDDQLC

Target: HA-tagged wild type human α2BAR (pcDNA3.1-HA-α2B) (human) (UniProt P18089)
Assay: co-IP; transfected cells co-expressing HA-tagged WT or Del301-303 α2BAR with GFP-Arr3, GFP-Arr3R170E or Myc-spinophilin, with or without 100 μM epinephrine plus 1 μM propranolol; IP with rat anti-HA antibody

binding: binds
Substance: GFP-tagged arrestin 3 R170E (pGFP-Arr3-R170E) (from UniProt P32121)

These are yes or no findings as the source states them, for the method shown. Binding seen in cells or lysates may run through a third protein. A result given as binding can be weak or reduced; the word gives no strength.
